Results published in patent publication US5824668A, “Formulation for administration of steroid compounds” (priority 1996, dated 1998).
Where two headings read alike, the source gives them in different places. At least one read-out could not be matched to a standard name with certainty.

Experimental: 12 milligrams (mg) of Etiocholandione (Steraloids, Inc. New Hampshire) was stirred and shaken with 0.5 ml of water in a test tube.
A 50% solution of hydroxypropyl-β-cyclodextrin was prepared as follows. 5 grams of pyrogen free hydroxypropyl-β-cyclodextrin (sold under the trade name Encapsin, Amaizo, Inc., Hammond, Ind., USA) was weighed on an analytical scale and placed in a graduated cylinder. Water was added with shaking until the volume reached 10 ml.
0.5 ml of the 50% solution of hydroxypropyl-β-cyclodextrin was added to the 0.5 ml of water containing 12 mg of Etiocholandione with additional shaking.
The previous experiment was repeated using a 50% solution of hydroxypropyl-β-cyclodextrin prepared as in Example 1. 50 mg of Etiocholandione was weighed and placed in a test tube. 2 ml of the 50% solution of hydroxypropyl-β-cyclodextrin was added to the test tube with shaking.
4 grams of hydroxypropyl-β-cyclodextrin was dissolved in 7 ml of distilled water to a total volume of 10 ml. Each ml of stock solution contained 0.4 g of solution hydroxypropyl-β-cyclodextrin. 20 mg of 3-β-hydroxy androstan-17-one (β-etiocholanolone) was shaken with 1 ml of the freshly prepared stock solution.
The same experiment as in example III was performed except that 40 mg of β-etiocholanolone was added to the stock solution of hydroxypropyl-β-cyclodextrin. […]

C[C@]12CCC(=O)C[C@H]1CC[C@@H]1[C@@H]2CC[C@]2(C)C(=O)CC[C@@H]12 [ED]
amount effectively solubilized in 1 ml (1 ml of 25% solution of hydroxypropyl-β-cyclodextrin): 12 mg | amount effectively solubilized in 1 ml (1 ml of 50% solution of hydroxypropyl-β-cyclodextrin): 25 mg
